Measurements published in PubChem BioAssay AID1508600 (Functional Genomics Laboratory (NCATS/FGL), 2020).
About 3,700 (7%) of roughly 53,000 sequences were called active.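 The calls were made as follows: active = gene knockdowns whose robust z-score for IL-1 alpha signal is at least 2 or at most -2, so actives lie on both sides; inactive = the rest.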 This is one part of the list.

Test: Components of the Cytosolic LPS Sensing Pathway: Gene Identification via Genome-wide siRNA Screen;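 also: robust z of the log signal after scaling to non-targeting control siRNA wells of the plate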
Conditions: RAW264.7 macrophages, IL-1a HTRF, actives lie on both sides, screened at 100 nM (by protocol), cells primed 5 h with Pam3CSK4 first
Outline: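 RAW264.7; siRNA 100 nM final, RNAiMAX, 48h 37 degrees C; Pam3CSK4 5 h; LipidA + TransIT-TKO 24 h; IL-1a HTRF; CellTiter-Glo viability; robust z vs negative-control median.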

Sequence	z-score
GGCUAUCAGUUUCAAUGAGTT against Olfr663	inactive: 0.0195
GGCUUAGAAUCAGACUUGUTT against Tor3a	inactive: 0.673
CCAACUCCUAACAGACCUATT against Csf2rb	inactive: 0.773
GGACUGGAAGAAUUUUUUGTT against Mrpl47	inactive: 0.293
GGAACGGCUGAUCACUCUGTT against Otop1	inactive: -0.237
GCUUUUGCUACAAGUGUAUTT against Cop1	inactive: -0.593
GCUAAUAAUGGUCAAAGCCTT against Prrt3	inactive: -0.963
GGCCUACGACAAAUCCAAATT against Csrp2	inactive: 1.14
GCUGAGUUCAUUGCAAUGCTT against Cyp4a12b	inactive: 0.274
CCAGUUCCGGUCAGAUUAUTT against Gnal	inactive: -1.55
GGAAAGUUAAUGCACAUUUTT against Hmg20a	inactive: -1.68
GGUAUGCAACCUUGCCUUUTT against Coa3	inactive: 0.945
GGAGACCUGUGACUCCUUATT against 4932415M13Rik	inactive: 1.9
GCAAAGGUUCUAGUUGAUATT against Cct2	inactive: -0.585
GGAACCAGAGGACAAAGACTT against Ccdc96	active: -2.43
CGAAGGUCGUUAUUAUAAUTT against Wls	inactive: 0.599
CCGUGGUCUACUCCAUCAUTT against Slc6a19	inactive: 1.19
GGGAAGGAACUUGAUUUGUTT against L3mbtl4	inactive: -0.0396
GCGAAAGAUGGAAGACGACTT against Gtf3c1	inactive: 1.18
GGAGUUGGCAACAAGUUCUTT against Btbd35f1	inactive: -0.196
GGACCUUGUACCCAUUCCUTT against Prr5	inactive: 1.01
GCUCAACGCAUUUUUCCAUTT against Neurod2	inactive: 0.57

Sequence	z-score
CGGCACCAGUGUUCUAUUGTT against Ddi2	inactive: 1.91
GGCAACUAAGGCUAAGAAGTT against H1f4	inactive: -1.89
GGACUGUUGCAUGACUCUCTT against Evc	inactive: 1.08
CCUACUCUCUAGAAAAGGATT against Olfr1006	inactive: -1.76
GGGAGUCCGUUCAAACUCGTT against Pttg1	inactive: -0.576
GCAUGCGAUGAAGACAACATT against Efcab11	inactive: 1.17
GGCCAUUUCCAUCAGAGGATT against Vav2	inactive: -1.31
GGAGUGUGCGGAACAUUCUTT against Slc17a5	inactive: 0.364
GGUCUUACCUUUUGAAAAATT against Mtbp	inactive: 0.0999
CCAACAGCAACGAUGACAATT against Thoc5	active: -2.94
GCUUUGACCUCGAAAAUGGTT against Pde4c	inactive: -0.0868
GGUGAAGAUGGACUCUCUGTT against Trmt10b	inactive: -1.15
GGAGUCAAAUGAUUAUGUCTT against Lax1	inactive: -0.776
GUAACCAGUUCUUCUCUGUTT against Vmn1r24	inactive: -0.443
GGCGUGCUUUCUACCAAGGTT against Slco1a5	inactive: 0.346
GGAGUUGUUCAGGUCCCGATT against Crlf1	inactive: -0.249
CCUAAAGACGUGCAAUAUGTT against Zfp287	inactive: 0.526
GGAAAAACAAGCAUUAGGUTT against Mthfsd	inactive: -0.737
GUCACUGAAUUUCUCCUCUTT against Olfr104-ps	active: -2.28
GGAAUGUUACCCUUCAACUTT against Slc25a13	inactive: -0.0366
GGCUUUGAUGUCAGCACUGTT against Ngrn	inactive: 0.247
GCUAUUGACCAGGUUAUAATT against Pdhb	inactive: 1.06

Six entries picked at random from the list so far:
Sequence	z-score
CCUAAAGACGUGCAAUAUGTT against Zfp287	inactive: 0.526
GGAGUCAAAUGAUUAUGUCTT against Lax1	inactive: -0.776
CCUACUCUCUAGAAAAGGATT against Olfr1006	inactive: -1.76
GCUAUUGACCAGGUUAUAATT against Pdhb	inactive: 1.06
GGCGUGCUUUCUACCAAGGTT against Slco1a5	inactive: 0.346
GGUCUUACCUUUUGAAAAATT against Mtbp	inactive: 0.0999

(list continues)

Sequence	z-score
GGCACGAUACUUAUUUGAATT against Nudt13	inactive: -1.43
GGCUUUGGAUGUUUUUGUATT against Fgf10	inactive: -1.46
GCCUCCAUAAUUGUCAAUATT against Rbks	inactive: -0.563
CCAGAUGGUCUAUAUCGUATT against Plscr4	inactive: -1.5
GUACACUCAAUCACUCUUGTT against Rexo5	inactive: 0.966
CCUGUGAAAGAUGCUUAUATT against Capn7	inactive: -1.65
GCGAGCAUGAAGUUAGUAATT against C230029F24Rik	inactive: 0.914
CGUGACGUAUCUGUGGUCATT against St8sia4	inactive: 0.424
GGCAGAACACAGUUCGAUCTT against Tbcb	inactive: 0.165
GCUUAAUCGAACCAGAGUGTT against 2610524H06Rik	inactive: -1.24
GAGGUCAUUCCACGACGGUTT against Prpmp5	inactive: 0.391
CCAUCAGGUUUAAGUCGUATT against Vps36	inactive: -0.698
CGCAUUACAAUUCAUCAUCTT against Rnf170	inactive: 0.827
GGCUGCAUCUAUAACAUAATT against Olfr611	inactive: -0.767
GGUGAAGCUGCUGAGAAAGTT against Angptl1	inactive: 0.0726
CCAAGUAACAGUUUAGUAGTT against Nme5	inactive: 0.358
GGUCCUAGAGAAUCUCCAGTT against Tst	inactive: -2
GGGCCUUUAAAGUAGUUGATT against Gm5115	inactive: 0.513
GGUGACUGAAAUCAAACACTT against Il9r	inactive: -1.71
GGUUUUACAGAACAUGGUATT against Tox4	inactive: -1.24
CCUUAAAAGUAACCACUGUTT against Slc6a6	active: 2.38
GCUGGAGACUACUACGUGCTT against Bex2	inactive: 1.93

Sequence	z-score
CCAUGACACUCAUUCCCAGTT against Tbc1d7	active: -2.64
GGCAUUUCAUGUAGCUAAATT against Spata18	active: 2.04
GUCACCUAGCCUUUGUUGATT against Olfr1038-ps	inactive: -0.0572
GGAUAUUUGGAGGACAACCTT against C1s1	inactive: 0.0678
GCCCAAAUUGGGUUCAUCATT against Pde9a	inactive: 0.394
GGCUUUCGUGUUUUCAGUUTT against 4921524J17Rik	inactive: 0.159
GGCCAAAAAUUUCAUCUCUTT against Itgae	inactive: 1.06
GCACCUGAAGACUAAUGUUTT against Gcnt2	inactive: 0.509
GGUCUUUCAGAAAGUAGAUTT against Zbtb46	inactive: -0.0458
GGUUGAUGAAGCUAAUUUATT against Ube2l3	inactive: 0.206
GGAGUUUUGAAUAAACCAATT against Tmc7	inactive: -0.2
CGACUUCGUCAUAAGAAUATT against Map3k6	inactive: 0.299
CGAGAUUGUGGAUAGCUUUTT against Eif4a1	inactive: 0.284
GGACUUGAAGUAAAGUAUATT against Megf9	inactive: 0.156
GGAACAACCACGGAACCCATT against Il1r2	inactive: 0.335
GCGCACCGUCAAAGUGAAATT against Atp5o	inactive: 0.906
GCUCGUUCGCCUAGAAUUGTT against Mycbp	inactive: 0.529
GGUACACAUGACAUUCAUGTT against Gcdh	inactive: 0.553
GGACUUUUCAUUUGAAGCATT against Gar1	inactive: 1.03
GGAGUCAUGCUCAUUUUGCTT against Skint2	inactive: 0.762
GGUAAUGUCCUUAUCAUCUTT against Olfr211	inactive: -1.42
GGACAAUUGUGACCUCAGATT against Tmem82	inactive: -0.321

Sequence	z-score
GGAGAUUGAUUUCAAUGCCTT against Olfr665	inactive: 0.203
GGUAAGGUUACAGCACUGATT against Chac2	inactive: -0.489
GGUGAUUUGUAAGACAGCUTT against Dpyd	inactive: -0.626
GGCUGUGAGAACGAUGCAATT against Fam151a	inactive: -1.08
GCCUUAGGUUCGGAUGACCTT against Rorb	inactive: -0.961
GCGGUAACAUCACCAAAAUTT against Gltp	inactive: -1.63
GCUUUGUUGCGUCAACAAATT against Sdccag8	inactive: -0.504
GGACAAGUUAGAGGAAUUUTT against Phf13	inactive: 1.96
GGGUUUUUGGGAGAGCCAATT against Tbxas1	inactive: -1.48
GGCUAUUGCUGACCUCAGATT against Pidd1	active: -2.73
GGUCUACAAUGUGCGCACUTT against Trmt61a	inactive: 0.386
GGUUACGAAUUACCUAGACTT against Plat	inactive: 0.0523
GGUGGAAGUGAAGAAGCGATT against Depdc7	inactive: -0.838
GGACUGACUGGAUUUUUCCTT against Adamts12	inactive: -0.102
GGACUCAACUGGACAGCCUTT against E330037G11Rik	inactive: -0.556
GGCCUUUCUAAAUUCAACATT against Top3a	inactive: -1.16
CGAGGAAUAACAACAGCCUTT against Itk	inactive: -0.977
GGGAGCAACAAUGUAAACATT against Pex13	inactive: 1.04
GGAAAACUUACCUUCUUAATT against Zfp157	inactive: -0.143
